Measured values published in the supplement of paper PMC10849652.
Some of the results follow.

The chains behind the UniProt entries cited, without tags or fusion partners. Where a name states a change or a piece, a line headed by the entry shows the natural chain unless it says otherwise.
UniProt Q8NG48: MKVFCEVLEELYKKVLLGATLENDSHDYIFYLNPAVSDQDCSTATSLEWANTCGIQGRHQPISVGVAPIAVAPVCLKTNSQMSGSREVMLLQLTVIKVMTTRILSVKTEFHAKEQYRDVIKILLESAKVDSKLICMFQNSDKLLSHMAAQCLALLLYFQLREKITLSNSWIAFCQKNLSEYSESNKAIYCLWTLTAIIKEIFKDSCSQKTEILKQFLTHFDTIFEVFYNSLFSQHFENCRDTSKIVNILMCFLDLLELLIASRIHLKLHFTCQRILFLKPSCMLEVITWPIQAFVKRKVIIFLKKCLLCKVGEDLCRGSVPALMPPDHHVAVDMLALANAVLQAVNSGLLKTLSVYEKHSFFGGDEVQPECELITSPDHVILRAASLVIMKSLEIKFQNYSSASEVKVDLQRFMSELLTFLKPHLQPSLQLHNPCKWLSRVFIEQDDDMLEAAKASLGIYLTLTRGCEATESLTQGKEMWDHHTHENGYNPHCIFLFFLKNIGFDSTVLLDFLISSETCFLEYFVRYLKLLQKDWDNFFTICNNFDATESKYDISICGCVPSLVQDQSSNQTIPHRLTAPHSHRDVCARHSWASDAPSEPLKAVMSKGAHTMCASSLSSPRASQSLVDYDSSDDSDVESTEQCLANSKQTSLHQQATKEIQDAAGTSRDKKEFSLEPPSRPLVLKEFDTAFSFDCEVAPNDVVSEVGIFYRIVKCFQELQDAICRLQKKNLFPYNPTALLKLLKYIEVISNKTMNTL
UniProt Q6ZV70: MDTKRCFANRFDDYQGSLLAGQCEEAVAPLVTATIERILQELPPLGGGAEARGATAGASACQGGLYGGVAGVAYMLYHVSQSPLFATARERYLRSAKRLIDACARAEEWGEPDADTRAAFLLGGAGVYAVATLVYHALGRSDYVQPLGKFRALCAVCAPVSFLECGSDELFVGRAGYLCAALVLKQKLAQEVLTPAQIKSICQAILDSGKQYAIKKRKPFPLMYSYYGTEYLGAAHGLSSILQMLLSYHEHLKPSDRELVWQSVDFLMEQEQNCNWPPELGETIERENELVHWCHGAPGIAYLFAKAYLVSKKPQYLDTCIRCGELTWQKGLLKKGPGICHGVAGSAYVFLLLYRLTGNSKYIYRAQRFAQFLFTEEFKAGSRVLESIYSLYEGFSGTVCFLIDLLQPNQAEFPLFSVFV
UniProt Q643R3: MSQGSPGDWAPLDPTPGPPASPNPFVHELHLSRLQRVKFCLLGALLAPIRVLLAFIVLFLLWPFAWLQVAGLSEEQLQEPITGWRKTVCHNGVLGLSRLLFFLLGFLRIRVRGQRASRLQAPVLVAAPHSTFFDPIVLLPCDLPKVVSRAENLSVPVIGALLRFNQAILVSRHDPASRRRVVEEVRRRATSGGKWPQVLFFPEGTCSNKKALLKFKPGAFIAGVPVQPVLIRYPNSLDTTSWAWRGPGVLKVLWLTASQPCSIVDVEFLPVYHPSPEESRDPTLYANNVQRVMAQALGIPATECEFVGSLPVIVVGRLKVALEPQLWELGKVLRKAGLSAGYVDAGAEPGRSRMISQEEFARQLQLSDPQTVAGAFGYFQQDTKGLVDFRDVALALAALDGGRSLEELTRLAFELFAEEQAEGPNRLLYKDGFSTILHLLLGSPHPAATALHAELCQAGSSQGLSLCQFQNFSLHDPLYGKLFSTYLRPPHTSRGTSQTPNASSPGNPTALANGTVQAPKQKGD
UniProt Q8WVP7: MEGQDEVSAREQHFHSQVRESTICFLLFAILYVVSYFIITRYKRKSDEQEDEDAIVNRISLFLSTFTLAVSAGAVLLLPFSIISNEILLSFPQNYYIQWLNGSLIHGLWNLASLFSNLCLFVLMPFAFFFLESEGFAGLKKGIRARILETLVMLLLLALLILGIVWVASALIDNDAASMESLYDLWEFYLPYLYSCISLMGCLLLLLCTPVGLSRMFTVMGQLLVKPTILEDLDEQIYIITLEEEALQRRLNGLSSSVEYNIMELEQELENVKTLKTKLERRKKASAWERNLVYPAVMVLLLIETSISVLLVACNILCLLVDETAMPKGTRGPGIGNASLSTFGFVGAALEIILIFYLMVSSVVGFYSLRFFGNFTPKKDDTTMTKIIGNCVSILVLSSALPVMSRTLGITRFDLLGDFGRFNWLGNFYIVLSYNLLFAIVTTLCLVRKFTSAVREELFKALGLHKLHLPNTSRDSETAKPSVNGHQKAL
UniProt Q99538: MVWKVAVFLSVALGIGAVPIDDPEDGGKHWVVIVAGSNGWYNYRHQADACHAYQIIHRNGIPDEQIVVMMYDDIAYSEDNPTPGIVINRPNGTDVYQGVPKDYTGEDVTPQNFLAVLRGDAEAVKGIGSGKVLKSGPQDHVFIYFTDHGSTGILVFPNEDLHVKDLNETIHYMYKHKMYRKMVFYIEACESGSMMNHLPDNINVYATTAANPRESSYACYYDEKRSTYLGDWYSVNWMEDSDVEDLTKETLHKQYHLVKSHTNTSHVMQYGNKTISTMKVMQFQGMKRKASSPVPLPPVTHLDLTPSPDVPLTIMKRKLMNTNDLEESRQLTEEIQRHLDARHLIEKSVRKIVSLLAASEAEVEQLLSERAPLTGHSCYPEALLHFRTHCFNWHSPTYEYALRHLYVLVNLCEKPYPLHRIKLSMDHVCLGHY
UniProt Q3ZCW2: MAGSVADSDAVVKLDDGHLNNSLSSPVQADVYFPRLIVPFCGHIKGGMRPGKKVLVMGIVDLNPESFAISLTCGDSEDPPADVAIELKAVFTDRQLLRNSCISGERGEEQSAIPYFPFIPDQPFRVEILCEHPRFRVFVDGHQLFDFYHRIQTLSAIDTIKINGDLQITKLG
UniProt P80188: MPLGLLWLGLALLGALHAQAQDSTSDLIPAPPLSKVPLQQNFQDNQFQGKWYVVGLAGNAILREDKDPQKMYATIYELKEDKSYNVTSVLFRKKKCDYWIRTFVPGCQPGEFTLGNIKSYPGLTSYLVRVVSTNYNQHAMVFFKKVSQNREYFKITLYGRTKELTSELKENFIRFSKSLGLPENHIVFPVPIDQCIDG
UniProt Q52LA3: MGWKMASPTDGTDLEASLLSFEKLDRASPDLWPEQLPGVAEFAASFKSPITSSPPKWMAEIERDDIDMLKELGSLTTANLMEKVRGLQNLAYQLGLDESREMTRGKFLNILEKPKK
UniProt Q96KR4: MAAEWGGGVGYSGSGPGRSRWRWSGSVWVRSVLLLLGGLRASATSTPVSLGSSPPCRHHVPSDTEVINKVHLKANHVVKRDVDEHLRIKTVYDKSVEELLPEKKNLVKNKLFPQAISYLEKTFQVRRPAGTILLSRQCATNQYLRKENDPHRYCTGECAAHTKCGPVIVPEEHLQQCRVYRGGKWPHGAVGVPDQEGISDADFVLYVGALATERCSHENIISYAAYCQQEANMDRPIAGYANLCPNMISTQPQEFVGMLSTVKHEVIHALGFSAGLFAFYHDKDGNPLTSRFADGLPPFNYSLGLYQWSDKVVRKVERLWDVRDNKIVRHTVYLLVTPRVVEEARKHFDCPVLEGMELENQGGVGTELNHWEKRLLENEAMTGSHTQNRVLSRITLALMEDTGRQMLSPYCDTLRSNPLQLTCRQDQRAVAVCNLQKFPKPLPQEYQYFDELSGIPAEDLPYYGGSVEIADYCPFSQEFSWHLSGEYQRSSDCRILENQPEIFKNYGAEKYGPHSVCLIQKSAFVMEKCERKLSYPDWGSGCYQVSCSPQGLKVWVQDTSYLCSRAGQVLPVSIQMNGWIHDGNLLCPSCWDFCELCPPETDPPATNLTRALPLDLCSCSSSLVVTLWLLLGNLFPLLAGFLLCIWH

How the values were obtained:
Test in all cases: log2 fold change, soluble protein after heating vs DMSO (PISA); higher = thermal stabilisation; K562 cells, 10 uM, 30 min; active = over 0.2 and 3.5 SD of the protein, either way, in both replicates (recomputed)
[1] = compound: CC[C@H](C)[C@@H](C(=O)N[C@@H]([C@@H](C)O)C(=O)N[C@@H](CC(C)C)C(=O)[C@]1(CO1)C)NC(=O)[C@H]([C@@H](C)CC)N(C)C(=O)C [epoxomicin]
Method in brief: (§1)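 For each measurement, 10 μM compound was applied for 30 min to K562 cells at 2×10^6 cells/mL. Aliquots were heated for 3 min across 48°C-58°C, pooled, and extracted in PBS with 0.5% NP-40 at 4°C; the supernatant after 21,000xg for 90 min was soluble protein. This was quantified by TMTpro 16plex LC-MS/MS with channel sums equalised, and thermal stability was reported relative to control samples from duplicates, on a log2 fold-change scale.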

[2] = compound: CCn1c(C(=O)N(C2CC2)C2CC2)cc2c3c(ncn3C)c(Nc3cc(C)n(C)n3)nc21
Method in brief: as §1

[3] = compound: CN(CCOC1=CC=C(C=C1)C[C@H]2C(=O)NC(=O)S2)C3=CC=CC=N3 (racemic) [rosiglitazone]
Method in brief: as §1

[4] = compound: CN1CCN(c2nc(C3=C(c4c[nH]c5ccccc45)C(=O)NC3=O)c3ccccc3n2)CC1 [sotrastaurin]
Method in brief: as §1

[5] = compound: CNC(=O)C1=CC=CC=C1NC2=NC(=NC=C2Cl)NC3=C(C=C(C=C3)N4CCOCC4)OC
Method in brief: as §1

[6] = compound: CC[C@H](C)N1C=C(C2=C(C=C(C=C21)C3=CN=C(C=C3)N4CCNCC4)C(=O)NCC5=C(C=C(NC5=O)C)C)C
Method in brief: as §1

[7] = compound: CN1C2=C(C3=C1C(=O)N(N=C3)CC4=CC(=CC=C4)N)SC(=C2)S(=O)C
Method in brief: as §1

[8] = compound: CN1CCN(CCOc2cc(OC3CCOCC3)c3c(Nc4c(Cl)ccc5c4OCO5)ncnc3c2)CC1 [saracatinib]
Method in brief: as §1

[9] = compound: CN1CC[C@H](c2c(O)cc(O)c3c(=O)cc(-c4ccccc4Cl)oc23)[C@H](O)C1 [alvocidib]
Method in brief: as §1

[10] = compound: CNc1nc(-c2ccc3c(N)n[nH]c3c2)cc(N2C[C@@H](C(=O)NC3CCCCC3)CC[C@H]2C)n1
Method in brief: as §1

[11] = compound: CC[C@@H]1C(=O)N(C)c2cnc(Nc3ccc(C(=O)N[C@H]4CC[C@H](N5CCN(CC6CC6)CC5)CC4)cc3OC)nc2N1C(C)C [volasertib]
Method in brief: as §1

[12] = compound: CCn1cc(-c2ccnc3[nH]c(-c4cccc(CN(C)C)c4)cc23)c(-c2ccc(NC(=O)N(C)C)cc2)n1
Method in brief: as §1

[13] = compound: CN(C)CC(=O)Nc1ccc2[nH]c(=O)c3ccccc3c2c1
Method in brief: as §1

[14] = compound: CN1CCC(CNc2ccc3ncc(-c4cccc(OC(F)(F)F)c4)n3n2)CC1
Method in brief: as §1

[15] = compound: CN1CCc2c(c3ccccc3n2Cc2ccc(C(=O)NO)cc2)C1 [Tubastatin A]
Method in brief: as §1

[16] = compound: CNC(=O)c1ccc(Nc2ncc(C(F)(F)F)c(NCc3nccnc3N(C)S(C)(=O)=O)n2)cc1 [defactinib]
Method in brief: as §1

[17] = compound: COC(=O)[C@H](CCSC)NC(=O)C1=C(C=C(C=C1)NC[C@H](CS)N)C2=CC=CC=C2
Method in brief: as §1

Measured: log2 fold change

LINS1 (UniProt Q8NG48)
inactive: [1] 0.007 | [2] -0.016 | [3] -0.119 | [4] 0.071 | [5] -0.031

LANCL3 (UniProt Q6ZV70)
inactive: [6] 0.173 | [1] 0.053 | [3] 0.037 | [7] -0.001 | [8] 0.007 | [4] 0.043 | [9] -0.021 | [10] -0.088

LPCAT4 (UniProt Q643R3)
inactive: [1] 0.092 | [9] 0.009

LMBR1 isoform 3 (UniProt Q8WVP7)
inactive: [11] -0.452 | [1] 0.26 | [12] -0.456 | [13] 0.049 | [7] 0.033 | [14] -0.314 | [8] 0.085 | [4] -0.004 | [15] 0.079 | [5] -0.045 | [16] -0.104 | [10] -0.009 | [17] 0.132

LGMN (UniProt Q99538)
inactive: [11] -0.422 | [12] -0.071 | [14] -0.054

LGALSL (UniProt Q3ZCW2)
inactive: [7] 0.408 | [8] 0.055 | [10] -0.117

Copied from the listing (2 entries):
LINS1 (UniProt Q8NG48)
inactive: [1] 0.007 | [2] -0.016 | [3] -0.119 | [4] 0.071 | [5] -0.031

LANCL3 (UniProt Q6ZV70)
inactive: [6] 0.173 | [1] 0.053 | [3] 0.037 | [7] -0.001 | [8] 0.007 | [4] 0.043 | [9] -0.021 | [10] -0.088

(list continues)

LCN2 isoform 2 (UniProt P80188)
inactive: [4] -0.151 | [15] 0.426

LIN52 (UniProt Q52LA3)
inactive: [7] 0.003 | [8] 0.038 | [10] -0.059

LMLN isoform 3 (UniProt Q96KR4)
inactive: [11] 0.32 | [1] -0.131 | [3] 0.183 | [7] 0.189 | [8] -0.374 | [10] -0.001
